Results from PMC10641528, “A conserved, noncanonical insert in FIS1 mediates TBC1D15 and DRP1 recruitment for mitochondrial fission” (The Journal of Biological Chemistry, 2023).
Results are given in words; binding and its absence hold for the method and conditions named. In cells and extracts the contact can be indirect. Some entries that bind do so weakly or less than the wild type. Where a sequence is shown, tags or fusion partners need not be part of it.

Biological target: T1, YFP-TBC1D15 (UniProt Q8TC07)
T1 sequence: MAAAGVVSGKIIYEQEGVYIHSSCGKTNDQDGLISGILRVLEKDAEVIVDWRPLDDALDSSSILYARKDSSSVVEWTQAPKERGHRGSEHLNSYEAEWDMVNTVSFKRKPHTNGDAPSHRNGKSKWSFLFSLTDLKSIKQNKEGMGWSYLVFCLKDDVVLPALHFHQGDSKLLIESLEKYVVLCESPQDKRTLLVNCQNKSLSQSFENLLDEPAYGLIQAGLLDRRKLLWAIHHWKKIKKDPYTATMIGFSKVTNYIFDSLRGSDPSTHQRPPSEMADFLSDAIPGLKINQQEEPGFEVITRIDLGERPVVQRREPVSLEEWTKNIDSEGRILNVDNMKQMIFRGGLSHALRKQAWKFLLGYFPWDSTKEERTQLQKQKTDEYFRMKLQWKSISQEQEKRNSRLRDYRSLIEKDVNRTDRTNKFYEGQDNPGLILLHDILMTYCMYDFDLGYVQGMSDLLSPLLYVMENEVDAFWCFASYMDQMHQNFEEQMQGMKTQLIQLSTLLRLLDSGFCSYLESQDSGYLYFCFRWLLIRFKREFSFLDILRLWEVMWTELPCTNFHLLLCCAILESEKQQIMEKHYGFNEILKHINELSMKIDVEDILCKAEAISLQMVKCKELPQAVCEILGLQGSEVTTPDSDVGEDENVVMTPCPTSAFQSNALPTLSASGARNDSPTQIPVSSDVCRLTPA
Test: co-IP; YFP-TBC1D15 immunoprecipitated with GFP-trap agarose from lysates of HCT116 cells coexpressing FIS1 variants and YFP-TBC1D15, cross-linked with 0.25% PFA; FIS1 blotted; lysis buffer 10 mM Tris/Cl pH 7.5, 150 mM NaCl, 0.5 mM EDTA, 0.5% NP-40 substitute

B1: Mitochondrial fission protein 1 (FIS1), wildtype, ectopically expressed from pcDNA-FIS1 WT (natural protein, human)
chain: MEAVLNELVSVEDLLKFEKKFQSEKAAGSVSKSTQFEYAWCLVRSKYNDDIRKGIVLLEELLPKGSKEEQRDYVFYLAVGNYRLKEYEKALKYVRGLLQTEPQNNQAKELERLIDKAMKKDGLVGMAIVGGMALGVAGLAGLIGL
notes: human mitochondrial fission protein 1 (FIS1), wildtype, expressed from pcDNA; No tag is mentioned; detected with an anti-FIS1 antibody; also called WT FIS1; source: HCT116, transfected, in lysate (PFA cross-linked cells)
B1 was tested, and the binding was “binds”.

B2: FIS1 D49G variant (natural protein, human)
chain: MEAVLNELVSVEDLLKFEKKFQSEKAAGSVSKSTQFEYAWCLVRSKYNGDIRKGIVLLEELLPKGSKEEQRDYVFYLAVGNYRLKEYEKALKYVRGLLQTEPQNNQAKELERLIDKAMKKDGLVGMAIVGGMALGVAGLAGLIGL
notes: human FIS1 that keeps the SKY insert, with D49 replaced by Gly, expressed from pcDNA; source: HCT116, transfected, in lysate (PFA cross-linked cells)
B2 was tested, and the binding was “binds”.
